Drawing on article PMC3009721, this text covers binding for 5 molecules.

Amino acid sequences for entries named in this document (tags omitted). A change or cut given only in a name is not applied to a line headed by its entry.
UniProt Q9FXE4: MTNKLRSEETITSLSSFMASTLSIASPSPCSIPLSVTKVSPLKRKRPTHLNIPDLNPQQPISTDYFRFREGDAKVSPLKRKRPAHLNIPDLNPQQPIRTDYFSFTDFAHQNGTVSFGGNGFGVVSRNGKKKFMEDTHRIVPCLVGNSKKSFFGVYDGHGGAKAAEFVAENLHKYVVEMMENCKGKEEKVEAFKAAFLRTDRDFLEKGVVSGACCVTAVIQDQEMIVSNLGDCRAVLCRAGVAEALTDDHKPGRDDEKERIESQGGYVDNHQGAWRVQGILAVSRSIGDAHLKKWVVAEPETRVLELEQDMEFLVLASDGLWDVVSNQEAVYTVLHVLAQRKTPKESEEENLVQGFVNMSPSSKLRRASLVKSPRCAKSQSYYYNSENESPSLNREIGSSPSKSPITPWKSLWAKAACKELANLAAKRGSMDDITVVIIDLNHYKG
UniProt Q39024: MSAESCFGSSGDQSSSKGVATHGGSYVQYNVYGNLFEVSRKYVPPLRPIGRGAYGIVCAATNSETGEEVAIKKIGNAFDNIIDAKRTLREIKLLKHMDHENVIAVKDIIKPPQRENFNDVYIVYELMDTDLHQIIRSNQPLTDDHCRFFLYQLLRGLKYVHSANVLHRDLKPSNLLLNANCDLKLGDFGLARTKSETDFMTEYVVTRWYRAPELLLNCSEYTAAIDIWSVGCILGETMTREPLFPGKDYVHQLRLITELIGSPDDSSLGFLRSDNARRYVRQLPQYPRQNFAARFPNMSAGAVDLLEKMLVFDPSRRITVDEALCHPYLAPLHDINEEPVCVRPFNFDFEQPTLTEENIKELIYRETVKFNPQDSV
UniProt Q39026: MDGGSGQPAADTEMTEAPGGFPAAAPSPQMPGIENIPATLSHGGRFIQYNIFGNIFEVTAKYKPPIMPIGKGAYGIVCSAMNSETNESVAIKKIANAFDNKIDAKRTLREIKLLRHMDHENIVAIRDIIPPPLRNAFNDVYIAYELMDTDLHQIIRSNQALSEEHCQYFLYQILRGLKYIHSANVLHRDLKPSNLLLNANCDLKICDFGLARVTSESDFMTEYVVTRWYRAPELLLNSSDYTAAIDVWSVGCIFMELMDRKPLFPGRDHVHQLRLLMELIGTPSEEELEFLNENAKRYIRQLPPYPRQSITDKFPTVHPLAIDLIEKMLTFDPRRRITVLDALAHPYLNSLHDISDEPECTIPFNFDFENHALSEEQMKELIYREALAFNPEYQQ

Test [1] addresses YFPntd-AP2C4 (Arabidopsis) (UniProt Q9FXE4). The test can be described thus: split reporter; split-YFP BiFC; YFPntd-PP2Cs co-transfected with YFPctd-MAPKs in Arabidopsis suspension culture protoplasts, reconstituted fluorescence detected by microscopy.
Test [2] concerns the target AP2C4 in pBD-GAL4cam (Arabidopsis) (UniProt Q9FXE4). The test can be described thus: two-hybrid; pBD-GAL4cam-PP2C with pAD-MAPK vectors cotransformed in yeast strain PJ-69A (pJ694A in the legend); growth on selective plates.
Test [3] deals with YFPntd-AP2C2 (Arabidopsis). In words: split reporter; split-YFP BiFC; YFPntd-PP2Cs co-transfected with YFPctd-MAPKs in Arabidopsis suspension culture protoplasts, reconstituted fluorescence detected by microscopy.

No constants are given. Whether binding was seen depends on the method and setting. Binding can be weak; no strength is given. For part of these data: In cells and extracts the contact can be indirect.

In the case of “YFPctd-MPK4 (from UniProt Q39024 1-376) (enzyme)”, in test [1], the binding result is “no binding”.
On to “YFPctd-MPK6 (from UniProt Q39026 1-395) (enzyme)”, for which the binding result in test [1] was “binds”.
In the case of “pAD-MPK6 (from UniProt Q39026 1-395) (enzyme)”, the binding entry in test [2] is reported as “binds”.

B1: YFPctd-MPK3 (enzyme, UniProt Q39023 1-370)
chain: MNTGGGQYTDFPAVETHGGQFISYDIFGSLFEITSKYRPPIIPIGRGAYGIVCSVLDTETNELVAMKKIANAFDNHMDAKRTLREIKLLRHLDHENIIAIRDVVPPPLRRQFSDVYISTELMDTDLHQIIRSNQSLSEEHCQYFLYQLLRGLKYIHSANIIHRDLKPSNLLLNANCDLKICDFGLARPTSENDFMTEYVVTRWYRAPELLLNSSDYTAAIDVWSVGCIFMELMNRKPLFPGKDHVHQMRLLTELLGTPTESDLGFTHNEDAKRYIRQLPNFPRQPLAKLFSHVNPMAIDLVDRMLTFDPNRRITVEQALNHQYLAKLHDPNDEPICQKPFSFEFEQQPLDEEQIKEMIYQEAIALNPTYG
Turning to B1, the binding entry in test [3] and in test [1] was “binds” throughout.

B2: pAD-MPK3 (enzyme, UniProt Q39023 1-370)
chain: B1 chain
As to B2, the binding result in test [2] is recorded as “binds”.
